Assay results as given in publication PMC12040169 (PLOS Biology, 2025).
The other results are listed elsewhere or left out.

system: T1, CTL2-GFP (C. trachomatis L2/434/Bu, GFP-expressing); set-up: species or system HeLa; Intracellular C. trachomatis growth in HeLa cells, bulk GFP fluorescence relative to DMSO; conditions: bulk GFP, single well; 28.5 h, 10 µM; inhibitor
T1 construct: L2/434/Bu, GFP-expressing

Row | SMILES | % of control remaining
1 | O=C(O)c1cccc(NS(=O)(=O)c2cccc(Cl)c2Cl)c1 [CBK155686] | 106.226%
2 | COc1ccc(C(F)(F)F)cc1N [CBK038366] | 168.305%
3 | O=C1CCCN1CCCNC(=O)N1CCN(CCc2ccccc2)CC1 [CBK158932] | 168.797%
4 | CC(CN(C)C(=O)Cn1cccc(C(=O)Nc2ccc(F)cc2)c1=O)c1ccccc1 (centres unmarked) [CBK286065] | 110.798%
5 | CC(=O)N1c2ccc(C(O)CN3CCCC(C)C3)cc2CC1C (centres unmarked) [CBK282922] | 112.168%
6 | CC(C)(CN)CN(Cc1ccc(Cl)cc1Cl)C(=O)NCCc1c[nH]c2ccccc12 [CBK000460C] | 146.339%
7 | CC(=O)NC1CCN(c2nc(N(C)C)nc3c2CCN(C(C)=O)C3)CC1 [CBK307079] | 111.164%
8 | Cc1ccccc1-n1ncc2c(=O)n(Cc3ccccc3)cnc21 [CBK287690] | 86.0861%
9 | CCOC(=O)c1[nH]c2ccccc2c1NC(=O)c1ccc(Cl)c(C)c1 [CBK160146] | 131.484%
10 | O=C(NCC(c1ccccc1)N1CCOCC1)c1cnc(-c2ccc(F)cc2)c(-c2ccco2)c1 (centres unmarked) [CBK037531] | 188.327%
11 | CCOc1ccccc1C(=O)Nc1cnc(-c2cccc(OC(F)(F)F)c2)c(-c2cccnc2)n1 [CBK036952] | 74.5153%
12 | COc1ccc(N2CCN(CC(=O)Nc3ccc(Cl)cc3C(=O)c3ccccc3)CC2)cc1 [CBK265743] | 106.245%
13 | Cc1cc(C)c(OCCOCCN2CCNCC2)c(Br)c1 [CBK266079G] | 151.619%
14 | Cc1cc(N2CCN(C(=O)c3c[nH]c(=O)[nH]3)CC2)nc(C(C)C)n1 [CBK296681] | 107.049%
15 | COc1ccc(NC2=CC(=O)CC(c3ccc(C)cc3)C2)c(OC)c1 (centres unmarked) [CBK264845] | 90.2761%
16 | Cc1cc2nc(SCCNC(=O)c3ccc(Cl)cc3)nc(C)c2cc1C [CBK266223] | 140.452%
17 | COc1ccc(-c2ccc(OC)cc2C(=O)Nc2ccc(Cn3cncn3)cc2)cc1 [CBK285588] | 111.523%
18 | O=C(CNC(=O)c1ccccc1)N/N=C/c1ccc(Br)cc1 [CBK260957] | 104.31%
19 | CC1(C)NC(=O)N(CCCC(=O)NCc2coc(-c3cccs3)n2)C1=O [CBK237157] | 120.382%
20 | CC1CC(N(C(=O)c2cccc(Br)c2)c2ccccc2)c2ccccc2N1 (centres unmarked) [CBK262966] | 117.454%
21 | O=C1c2ccc(OCCOc3ccc4c(c3)C(=O)N(c3ccc(O)cc3)C4=O)cc2C(=O)N1c1ccc(O)cc1 [CBK262668] | 116.116%
22 | CC(C)Oc1ccc(C(F)(F)F)cc1N [CBK028895C] | 114.402%
23 | CC[C@H](Cn1c(=O)oc2ccccc21)NC(=O)Cc1ccsc1 [CBK284543] | 125.485%
24 | Cc1ccc(-c2n[nH]c(=S)n2CCC(=O)N2CCC(c3c[nH]c4ccccc34)CC2)cc1 [CBK296739] | 122.578%
25 | O=C1/C(=C/c2c(NCCc3ccccc3)nc3ccccn3c2=O)SC(=S)N1Cc1ccco1 [CBK264674] | 111.941%

Row | SMILES | % of control remaining
26 | COc1ccc([N+](=O)[O-])cc1NC(=O)CSCc1ccc(Br)cc1 [CBK268272] | 149.35%
27 | O=C(c1ccco1)N1CCN(C(=O)c2ccco2)CC1 [CBK068272] | 116.469%
28 | N[C@@H]1CCCN(C(=O)C2CC2)[C@H]1c1ccccc1F [CBK281563] | 102.076%
29 | CCCC(=O)c1ccc(S(=O)(=O)N2CCCN(Cc3c[nH]nc3-c3ccccc3)CC2)cc1 [CBK062916] | 104.96%
30 | COc1ccc(CC(=O)N2CCCC(c3cc4ncccc4[nH]3)C2)cc1 (centres unmarked) [CBK283418] | 113.502%
31 | CCNc1cc(N2CCN(C)CC2)ccc1NS(=O)(=O)c1ccc(F)cc1F [CBK001496C] | 110.636%
32 | COc1ccc(C(O)CNC(C)C)c2c(C)c(C)oc12 (centres unmarked) [CBK011885C] | 135.523%
33 | CC(SCC(=O)Nc1ccc(F)cc1)c1nc2ccccc2c(=O)[nH]1 (centres unmarked) [CBK269200] | 85.6196%
34 | CCC1CCCCN1C(=O)c1c(Cl)cccc1Cl (centres unmarked) [CBK081303] | 119.619%
35 | COCCCNCC#CCOc1ccccc1OC [CBK267419G] | 116.902%
36 | O=C(NCCN1CCC(O)(c2ccc(F)cc2)CC1)c1cccs1 [CBK283163] | 84.193%
37 | Nc1ccc2ccc(Cl)nc2n1 [CBK039198] | 88.3122%
38 | O=C(O)C1C2C=CC(O2)C1C(=O)NCC1CCCO1 (centres unmarked) [CBK286917] | 103.281%
39 | COc1cc(C#N)ccc1Oc1ccc([N+](=O)[O-])cc1C(F)(F)F [CBK002544] | 97.0671%
40 | Cc1ccc([N+](=O)[O-])cc1NC(=O)CN(Cc1ccc(Cl)cc1)S(C)(=O)=O [CBK267981] | 127.929%
41 | COC(=O)c1ccc(Cl)cc1N(Cc1c(F)cccc1Cl)S(C)(=O)=O [CBK021351] | 102.418%
42 | CCOCCNS(=O)(=O)c1ccc(C(C)(C)CC)cc1 [CBK044655] | 126.033%
43 | O=C(c1cccnc1)N1CCN(Cc2cccc([N+](=O)[O-])c2)CC1 [CBK263020] | 86.4049%
44 | CC(C)Cn1c(=O)[nH]c2ncc(-c3cncnc3)nc21 [CBK064177] | 134.102%
45 | COc1ccc(CC(=O)NCc2nc(-c3ccc(OC)cc3)no2)cc1 [CBK270043] | 120.206%
46 | CCC(C(=O)Nc1cc(OC)c(OC)cc1C(=O)O)c1ccccc1 (centres unmarked) [CBK266794] | 166.113%
47 | COc1ccccc1Oc1nnnn1-c1ccc(C(N)=O)cc1 [CBK267988] | 125.815%
48 | Cn1nccc1C(=O)Nc1nc(-c2ccccc2)cs1 [CBK287833] | 103.639%
49 | CC(C)c1ccc(S(=O)(=O)n2c(=O)n(CCc3c[nH]c4ccccc34)c3ccccc32)cc1 [CBK106518] | 113.237%
50 | Cn1c(N2CC[C@H](O)C2)nc2cc(C(=O)NC[C@@H]3CCCO3)ccc21 [CBK307433] | 90.5531%

Ordered by SMILES length (falling): part of the list above.
Row | SMILES | % of control remaining
40 | Cc1ccc([N+](=O)[O-])cc1NC(=O)CN(Cc1ccc(Cl)cc1)S(C)(=O)=O [CBK267981] | 127.929%
39 | COc1cc(C#N)ccc1Oc1ccc([N+](=O)[O-])cc1C(F)(F)F [CBK002544] | 97.0671%
15 | COc1ccc(NC2=CC(=O)CC(c3ccc(C)cc3)C2)c(OC)c1 (centres unmarked) [CBK264845] | 90.2761%
18 | O=C(CNC(=O)c1ccccc1)N/N=C/c1ccc(Br)cc1 [CBK260957] | 104.31%
